Taken from: PubChem BioAssay AID1224828 (NIAID, 2016)
The whole screen tested about 17,000 reagents; this is a part drawn at random. 762 of all reagents (4.5%) were called active. 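Active calls include both raised and lowered p65 entry, mostly lowered; wells with fewer than 50 cells lack a z-score.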 Raw values vary from plate to plate and are shown uncorrected. No sequences are given here.

- Assay: 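Regulators linking TLR4 signalling to p65 nuclear translocation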 (primary screen)
- Cells: mouse RAW264.7 G9 macrophage reporter cells (GFP-p65, Tnf promoter-mCherry)
- Reagent: siRNA pool against mouse genes, 100 nM
- Duration: 2 days siRNA transfection, then 40 min LPS before fixation
- Treatment: LPS (Salmonella minnesota R595) at 10 ng/ml
- Measurement: 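Imaged p65 nuclear translocation ratio, normalised to the plate median, converted to robust z-scores and averaged across two replicates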
- Scale: p65 translocation robust z-score: higher = more nuclear NF-kappaB p65 after LPS than the plate median; nuclear/cytoplasmic p65 ratio: higher = more nuclear NF-kappaB p65
- Active means: 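Called active when z exceeds 3.3 or falls under -1.56 (median of Tlr4 controls), giving activity score of at least 50; no calls for control wells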
- Calls: active = hit (p65 shift raised or lowered); inactive = no clear change

With knock-down of Scn7a (GeneID 20272), the screen gave p65 translocation robust z-score 0.03; nuclear/cytoplasmic p65 ratio, rep 1 = 1.53; nuclear/cytoplasmic p65 ratio, rep 2 = 1.21; low cell count flag enough cells to score; inactive.
With knock-down of Lrrc31 (GeneID 320352), the screen gave p65 translocation robust z-score -0.43; nuclear/cytoplasmic p65 ratio, rep 1 = 1.43; nuclear/cytoplasmic p65 ratio, rep 2 = 1.28; low cell count flag enough cells to score; inactive.
Depletion of Fdxr (GeneID 14149) resulted in: p65 translocation robust z-score -0.08; nuclear/cytoplasmic p65 ratio, rep 1 = 1.46; nuclear/cytoplasmic p65 ratio, rep 2 = 1.36; low cell count flag enough cells to score; inactive.
For Or8g24 (GeneID 258430), the entry reads p65 translocation robust z-score 1.27; nuclear/cytoplasmic p65 ratio, rep 1 = 1.7; nuclear/cytoplasmic p65 ratio, rep 2 = 1.31; low cell count flag enough cells to score; inactive.
Ndufa2 (GeneID 17991) showed p65 translocation robust z-score 0.59; nuclear/cytoplasmic p65 ratio, rep 1 = 1.85; nuclear/cytoplasmic p65 ratio, rep 2 = 1.7; low cell count flag enough cells to score; inactive.
After knock-down of Tmem18 (GeneID 211986), the record shows p65 translocation robust z-score 0.68; nuclear/cytoplasmic p65 ratio, rep 1 = 1.75; nuclear/cytoplasmic p65 ratio, rep 2 = 1.88; low cell count flag enough cells to score; inactive.
After knock-down of Katnal1 (GeneID 231912), the screen gave p65 translocation robust z-score 0.82; nuclear/cytoplasmic p65 ratio, rep 1 = 1.78; nuclear/cytoplasmic p65 ratio, rep 2 = 1.72; low cell count flag enough cells to score; inactive.
Against Vmn1r48 (GeneID 113845), the entry reads nuclear/cytoplasmic p65 ratio, rep 1 = 0; nuclear/cytoplasmic p65 ratio, rep 2 = 0; low cell count flag fewer than 50 cells per well; well left out of scoring; inactive.
Etfbkmt (GeneID 320204) showed p65 translocation robust z-score -1.31; nuclear/cytoplasmic p65 ratio, rep 1 = 1.18; nuclear/cytoplasmic p65 ratio, rep 2 = 1.06; low cell count flag enough cells to score; inactive.
Ube2s (GeneID 77891) showed p65 translocation robust z-score -0.07; nuclear/cytoplasmic p65 ratio, rep 1 = 1.59; nuclear/cytoplasmic p65 ratio, rep 2 = 1.41; low cell count flag enough cells to score; inactive.
Silencing of Adam28 (GeneID 13522) gave: p65 translocation robust z-score -0.39; nuclear/cytoplasmic p65 ratio, rep 1 = 1.52; nuclear/cytoplasmic p65 ratio, rep 2 = 1.6; low cell count flag enough cells to score; inactive.
Depletion of Gtf2h2 (GeneID 23894) came out at: p65 translocation robust z-score -0.06; nuclear/cytoplasmic p65 ratio, rep 1 = 1.44; nuclear/cytoplasmic p65 ratio, rep 2 = 1.35; low cell count flag enough cells to score; inactive.
For Tfap4 (GeneID 83383) the deposit lists p65 translocation robust z-score -1.85; nuclear/cytoplasmic p65 ratio, rep 1 = 1.34; nuclear/cytoplasmic p65 ratio, rep 2 = 1.18; low cell count flag enough cells to score; active.
Against Or2f1b (GeneID 258988), the values are nuclear/cytoplasmic p65 ratio, rep 1 = 1.13; nuclear/cytoplasmic p65 ratio, rep 2 = 1.26; low cell count flag fewer than 50 cells per well; well left out of scoring; inactive.
Knock-down of P2ry6 (GeneID 233571) came out at: p65 translocation robust z-score -0.12; nuclear/cytoplasmic p65 ratio, rep 1 = 1.49; nuclear/cytoplasmic p65 ratio, rep 2 = 1.46; low cell count flag enough cells to score; inactive.
After knock-down of Zfa-ps (GeneID 22639), the screen gave p65 translocation robust z-score 0.42; nuclear/cytoplasmic p65 ratio, rep 1 = 1.55; nuclear/cytoplasmic p65 ratio, rep 2 = 1.58; low cell count flag enough cells to score; inactive.
After knock-down of Or1j20 (GeneID 258942), the screen gave p65 translocation robust z-score -1.13; nuclear/cytoplasmic p65 ratio, rep 1 = 1.41; nuclear/cytoplasmic p65 ratio, rep 2 = 1.3; low cell count flag enough cells to score; inactive.
After knock-down of Krtap9-3 (GeneID 75586), the screen gave p65 translocation robust z-score -0.73; nuclear/cytoplasmic p65 ratio, rep 1 = 1.27; nuclear/cytoplasmic p65 ratio, rep 2 = 1.22; low cell count flag enough cells to score; inactive.
With knock-down of Hps4 (GeneID 192232), the record shows p65 translocation robust z-score -1.07; nuclear/cytoplasmic p65 ratio, rep 1 = 1.42; nuclear/cytoplasmic p65 ratio, rep 2 = 1.25; low cell count flag enough cells to score; inactive.
Silencing of Or10a48 (GeneID 258721) resulted in: p65 translocation robust z-score 0.35; nuclear/cytoplasmic p65 ratio, rep 1 = 1.4; nuclear/cytoplasmic p65 ratio, rep 2 = 1.39; low cell count flag enough cells to score; inactive.
Silencing of Bfsp1 (GeneID 12075) gave: p65 translocation robust z-score -1.17; nuclear/cytoplasmic p65 ratio, rep 1 = 1.28; nuclear/cytoplasmic p65 ratio, rep 2 = 1.35; low cell count flag enough cells to score; inactive.
After knock-down of Ssrp1 (GeneID 20833), the screen gave p65 translocation robust z-score 0.1; nuclear/cytoplasmic p65 ratio, rep 1 = 1.55; nuclear/cytoplasmic p65 ratio, rep 2 = 1.58; low cell count flag enough cells to score; inactive.
Iapp (GeneID 15874) gave p65 translocation robust z-score 0.17; nuclear/cytoplasmic p65 ratio, rep 1 = 1.44; nuclear/cytoplasmic p65 ratio, rep 2 = 1.42; low cell count flag enough cells to score; inactive.
Psmb10 (GeneID 19171) scored p65 translocation robust z-score 0.22; nuclear/cytoplasmic p65 ratio, rep 1 = 1.53; nuclear/cytoplasmic p65 ratio, rep 2 = 1.44; low cell count flag enough cells to score; inactive.
With knock-down of Vmn1r218 (GeneID 171256), the record shows nuclear/cytoplasmic p65 ratio, rep 1 = 1.4; nuclear/cytoplasmic p65 ratio, rep 2 = 1.19; low cell count flag fewer than 50 cells per well; well left out of scoring; inactive.
Against Donson (GeneID 60364), the values are nuclear/cytoplasmic p65 ratio, rep 1 = 1.06; nuclear/cytoplasmic p65 ratio, rep 2 = 0; low cell count flag fewer than 50 cells per well; well left out of scoring; inactive.
With knock-down of Pald1 (GeneID 27355), the screen gave p65 translocation robust z-score -0.7; nuclear/cytoplasmic p65 ratio, rep 1 = 1.38; nuclear/cytoplasmic p65 ratio, rep 2 = 1.3; low cell count flag enough cells to score; inactive.
